Laboratory results: PubChem BioAssay AID1259254 (NCATS, 2017)
The whole screen tested about 59,000 reagents; shown is a part drawn at random. Over the whole deposit, about 1,550 (2.6%) were called active. 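G2 share is only a proxy for re-replication; each gene was hit by three separate siRNAs, and active genes were retested.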 The numbers tell different reagents against one gene apart. Not all columns of the deposit are shown. Not stated in the record: the amount of reagent.

Purpose: 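Genome-wide screen for genes that prevent DNA re-replication in cancer cells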 (primary screen)
Cell system: human HCT116 colorectal cancer cells
Knock-down reagent: single siRNA against human genes
Duration: 3 days
Measurement: 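Imaged Hoechst DNA stain sorts each cell into a cycle phase by DNA amount; per plate, G2 fraction set to 0% for non-targeting and 100% for GMNN siRNA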
Scale: G2 robust z-score and G2 cells, % of GMNN control: higher = more G2 cells, more excess DNA replication
Call rule: 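An siRNA counts as active if its G2 robust z-score lies at least 5 MADs above the screen median; here such calls match roughly 38% of GMNN control or more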

HOXD9 #1 scored G2 robust z-score -1.17; G2 cells, % of GMNN control -5.29; inactive.
Knock-down of HOXD9 #2 came out at: G2 robust z-score -0.294; G2 cells, % of GMNN control 0.901; inactive.
After knock-down of HOXD9 #3, the screen gave G2 robust z-score -0.612; G2 cells, % of GMNN control -1.34; inactive.
SLC25A12 #1 showed G2 robust z-score 3.89; G2 cells, % of GMNN control 30.4; inactive.
Knock-down of SLC25A12 #2 gave: G2 robust z-score -0.201; G2 cells, % of GMNN control 1.55; inactive.
Silencing of SLC25A12 #3 gave: G2 robust z-score -1.47; G2 cells, % of GMNN control -7.4; inactive.
TRIM16 #1 scored G2 robust z-score -0.0954; G2 cells, % of GMNN control 2.3; inactive.
After knock-down of TRIM16 #2, the record shows G2 robust z-score 1.82; G2 cells, % of GMNN control 15.8; inactive.
Silencing of TRIM16 #3 resulted in: G2 robust z-score 0.0456; G2 cells, % of GMNN control 3.29; inactive.
For INPP5E #1, the entry reads G2 robust z-score 0.549; G2 cells, % of GMNN control 6.83; inactive.
INPP5E #2 scored G2 robust z-score -1.07; G2 cells, % of GMNN control -4.58; inactive.
Against INPP5E #3 the deposit lists G2 robust z-score 0.174; G2 cells, % of GMNN control 4.19; inactive.

2 of these entries in another layout:
target gene,siRNA no.,G2 robust z-score,"G2 cells, % of GMNN control",Outcome
TRIM16,1,-0.0954,2.3,inactive
TRIM16,2,1.82,15.8,inactive

Additional records follow:
With knock-down of PHF24 #1 the results were G2 robust z-score -0.741; G2 cells, % of GMNN control -2.24; inactive.
With knock-down of PHF24 #2, the screen gave G2 robust z-score -0.284; G2 cells, % of GMNN control 0.973; inactive.
Knock-down of PHF24 #3 gave: G2 robust z-score 2.58; G2 cells, % of GMNN control 21.1; inactive.
With knock-down of REEP2 #1, the screen gave G2 robust z-score -0.434; G2 cells, % of GMNN control -0.089; inactive.
Depletion of REEP2 #2 came out at: G2 robust z-score -0.658; G2 cells, % of GMNN control -1.66; inactive.
Against REEP2 #3 the deposit lists G2 robust z-score -0.721; G2 cells, % of GMNN control -2.1; inactive.
